For one assay, the target named is T1, mCherry-Golgin45 (UniProt Q9H2G9).
T1 sequence: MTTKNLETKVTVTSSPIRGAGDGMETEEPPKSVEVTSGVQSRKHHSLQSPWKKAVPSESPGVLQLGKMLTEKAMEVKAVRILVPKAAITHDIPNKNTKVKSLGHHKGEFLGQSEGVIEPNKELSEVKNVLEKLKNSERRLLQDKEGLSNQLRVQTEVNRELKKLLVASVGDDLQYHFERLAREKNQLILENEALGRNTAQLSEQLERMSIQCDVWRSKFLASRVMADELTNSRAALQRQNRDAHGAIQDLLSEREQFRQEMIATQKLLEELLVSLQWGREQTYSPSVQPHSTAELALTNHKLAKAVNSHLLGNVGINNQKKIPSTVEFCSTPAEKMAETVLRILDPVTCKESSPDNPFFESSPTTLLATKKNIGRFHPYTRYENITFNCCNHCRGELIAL
As to the kind of experiment: co-IP; HeLa cells transfected with mCherry-Golgin45 constructs (in some panels with myc-SUMO1 and HA-UBC9 WT or DN; in one panel with or without heat shock), lysed, anti-RFP beads, blots for endogenous proteins.

Chains of the proteins cited; added tags and fusions are not shown.
UniProt P29590: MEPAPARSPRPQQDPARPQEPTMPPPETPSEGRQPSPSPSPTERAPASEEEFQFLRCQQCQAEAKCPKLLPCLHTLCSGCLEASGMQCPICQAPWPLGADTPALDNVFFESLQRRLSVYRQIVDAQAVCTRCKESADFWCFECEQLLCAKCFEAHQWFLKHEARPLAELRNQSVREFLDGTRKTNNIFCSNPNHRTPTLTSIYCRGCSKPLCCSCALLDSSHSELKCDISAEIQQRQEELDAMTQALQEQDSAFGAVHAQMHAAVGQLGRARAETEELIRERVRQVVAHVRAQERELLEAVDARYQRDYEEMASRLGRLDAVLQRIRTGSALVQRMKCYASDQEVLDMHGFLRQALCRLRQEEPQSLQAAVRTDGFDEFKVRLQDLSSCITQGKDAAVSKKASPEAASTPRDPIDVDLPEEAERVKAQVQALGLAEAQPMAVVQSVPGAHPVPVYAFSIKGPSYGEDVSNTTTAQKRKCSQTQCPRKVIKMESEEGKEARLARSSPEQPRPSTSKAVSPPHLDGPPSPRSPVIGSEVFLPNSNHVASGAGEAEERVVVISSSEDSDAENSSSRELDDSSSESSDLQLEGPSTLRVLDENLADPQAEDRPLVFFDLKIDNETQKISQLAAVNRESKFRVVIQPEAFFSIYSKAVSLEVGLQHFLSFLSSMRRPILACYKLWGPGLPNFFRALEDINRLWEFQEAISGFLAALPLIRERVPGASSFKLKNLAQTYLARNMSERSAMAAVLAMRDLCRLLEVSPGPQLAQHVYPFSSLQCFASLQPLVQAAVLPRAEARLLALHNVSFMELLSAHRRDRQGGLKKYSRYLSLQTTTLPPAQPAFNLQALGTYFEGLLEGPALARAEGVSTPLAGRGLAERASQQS
UniProt Q92973: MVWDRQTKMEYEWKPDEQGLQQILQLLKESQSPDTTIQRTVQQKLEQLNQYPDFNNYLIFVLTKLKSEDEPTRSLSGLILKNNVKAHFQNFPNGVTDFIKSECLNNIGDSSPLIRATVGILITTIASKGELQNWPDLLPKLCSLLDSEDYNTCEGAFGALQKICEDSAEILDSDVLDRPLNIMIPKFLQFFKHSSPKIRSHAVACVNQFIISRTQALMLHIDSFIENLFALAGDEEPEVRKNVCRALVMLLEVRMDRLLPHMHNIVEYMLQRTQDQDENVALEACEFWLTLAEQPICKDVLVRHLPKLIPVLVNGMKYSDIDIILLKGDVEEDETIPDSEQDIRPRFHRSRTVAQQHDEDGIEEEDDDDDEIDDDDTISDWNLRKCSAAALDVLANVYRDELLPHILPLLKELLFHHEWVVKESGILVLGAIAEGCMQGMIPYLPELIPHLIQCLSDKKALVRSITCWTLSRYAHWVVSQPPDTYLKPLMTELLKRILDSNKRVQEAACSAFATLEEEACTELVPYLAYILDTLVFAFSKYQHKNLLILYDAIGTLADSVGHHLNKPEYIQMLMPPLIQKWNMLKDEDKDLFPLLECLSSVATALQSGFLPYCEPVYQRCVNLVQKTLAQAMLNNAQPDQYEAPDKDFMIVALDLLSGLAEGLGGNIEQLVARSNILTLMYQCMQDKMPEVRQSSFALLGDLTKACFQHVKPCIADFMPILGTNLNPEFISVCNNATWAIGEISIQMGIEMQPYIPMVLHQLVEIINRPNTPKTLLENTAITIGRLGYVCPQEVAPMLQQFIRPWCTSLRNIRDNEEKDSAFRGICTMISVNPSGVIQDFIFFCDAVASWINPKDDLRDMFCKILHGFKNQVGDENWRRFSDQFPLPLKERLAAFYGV
UniProt O95271: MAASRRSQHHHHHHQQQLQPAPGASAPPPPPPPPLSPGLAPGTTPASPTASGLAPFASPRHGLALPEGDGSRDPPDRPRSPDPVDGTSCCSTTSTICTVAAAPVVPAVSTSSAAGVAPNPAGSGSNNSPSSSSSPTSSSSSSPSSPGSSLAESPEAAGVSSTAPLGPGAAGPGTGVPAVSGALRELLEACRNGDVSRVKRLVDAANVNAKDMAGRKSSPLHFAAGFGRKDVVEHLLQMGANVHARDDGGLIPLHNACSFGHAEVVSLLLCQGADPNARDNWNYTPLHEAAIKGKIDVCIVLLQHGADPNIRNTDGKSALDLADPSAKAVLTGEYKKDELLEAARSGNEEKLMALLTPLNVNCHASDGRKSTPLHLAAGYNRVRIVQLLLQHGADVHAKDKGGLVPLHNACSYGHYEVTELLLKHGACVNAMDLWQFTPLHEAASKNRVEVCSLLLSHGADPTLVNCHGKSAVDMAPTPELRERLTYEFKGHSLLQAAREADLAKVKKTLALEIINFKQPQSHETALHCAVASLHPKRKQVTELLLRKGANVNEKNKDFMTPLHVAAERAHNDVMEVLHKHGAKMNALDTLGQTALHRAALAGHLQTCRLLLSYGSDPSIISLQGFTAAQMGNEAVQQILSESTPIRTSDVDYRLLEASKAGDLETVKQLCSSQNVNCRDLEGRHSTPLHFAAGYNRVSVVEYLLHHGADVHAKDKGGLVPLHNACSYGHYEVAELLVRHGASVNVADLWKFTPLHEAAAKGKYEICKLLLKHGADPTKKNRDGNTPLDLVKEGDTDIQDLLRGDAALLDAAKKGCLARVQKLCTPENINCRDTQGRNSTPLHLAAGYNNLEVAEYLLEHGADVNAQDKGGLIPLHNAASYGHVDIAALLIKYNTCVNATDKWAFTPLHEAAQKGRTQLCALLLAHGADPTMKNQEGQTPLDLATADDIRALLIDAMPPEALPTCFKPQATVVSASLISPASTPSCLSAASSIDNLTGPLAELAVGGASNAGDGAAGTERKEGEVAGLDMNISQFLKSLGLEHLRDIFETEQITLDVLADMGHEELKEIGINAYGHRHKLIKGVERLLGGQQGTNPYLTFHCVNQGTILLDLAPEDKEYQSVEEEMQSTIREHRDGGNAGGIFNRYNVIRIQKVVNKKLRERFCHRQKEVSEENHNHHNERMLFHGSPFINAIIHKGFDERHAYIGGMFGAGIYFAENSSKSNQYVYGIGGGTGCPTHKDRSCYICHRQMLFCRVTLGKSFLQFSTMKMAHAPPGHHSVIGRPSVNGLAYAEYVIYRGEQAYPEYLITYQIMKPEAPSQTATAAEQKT

The next assay deals with T2, GST-Golgin45 (336–385) (UniProt Q9H2G9).
T2 sequence: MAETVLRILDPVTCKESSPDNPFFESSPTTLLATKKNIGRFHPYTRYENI
As to the kind of experiment: pull-down; 200 µg GST-fusion proteins immobilized on glutathione Sepharose 4B; 0.1 μM Importin β2 in 25 mM Hepes pH 7.37, 300 mM NaOAc, 25 mM Mg(OAc)2, 0.5% Triton X-100, 1 mM DTT; 4 °C, 2 h; bound fractions blotted with anti-importin β2; both purified.

For a further assay, the target named is T3, mCherry-Golgin45 8-KR (UniProt Q9H2G9).
T3 sequence: T1 sequence with K4R, K9R, K67R, K72R, K77R, K100R, K106R, K127R
As to the kind of experiment: co-IP; HeLa cells transfected with mCherry-Golgin45 constructs (in some panels with myc-SUMO1 and HA-UBC9 WT or DN; in one panel with or without heat shock), lysed, anti-RFP beads, blots for endogenous proteins.

Where a chain is given by its changes, count along the chain named. Results are given in words; binding and its absence hold for the method and conditions named. For some assays here: Binding seen in cells or lysates may run through a third protein. Some entries that bind do so weakly or less than the wild type. For some assays here: Where a sequence is shown, tags or fusion partners need not be part of it.

In the case of “PML (endogenous) (from UniProt P29590 1-882)”, in the assay with mCherry-Golgin45, the binding result is recorded as “binds”.
As to “His-tagged importin β2 (from UniProt Q92973 1-898)”, in the assay with GST-Golgin45 (336–385), the binding result is on record as “binds”.
As to “Importin β2 (endogenous) (from UniProt Q92973 1-898)”, in the assay with mCherry-Golgin45, the binding entry was “binds”.
Take “Tankyrase-1 (endogenous) (from UniProt O95271 1-1327)”: the binding result with mCherry-Golgin45 and with mCherry-Golgin45 8-KR was “binds” each time.

The values are drawn from publication PMC11074300.
